## Screening data

Source: PubChem BioAssay AID1224904 (Broad Institute, 2016).

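Selective DUX4 reporter inhibition in doxycycline-induced 293T-iDUX4 cells, scored as Gaussia percent activity minus Italica percent activity, after a 24-hour treatment. The test concentration is not given here. Percent difference between the Gaussia and Italica channels; more negative values mean more selective suppression of the DUX4 reporter, and higher values mean less activity.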

Values are in %. How 0% and 100% were set is not given here. Common to all entries: measured here: selective DUX4 reporter inhibition. This is a side read-out of the assay, for part of the compounds, not drawn at random.

{"smiles": "O=C(Nc1ccc(F)cc1)N1CC(=O)N2[C@H](C1)[C@H](c1ccc(C#Cc3ccccc3)cc1)[C@@H]2CO", "Gaussia minus Italica difference (%)": "34.25"}
{"smiles": "COc1ccc2c3c([nH]c2c1)[C@@H](CO)N(Cc1cccc(Cl)c1)CC31CN(C)C1", "Gaussia minus Italica difference (%)": "-3.244"}
{"smiles": "CN(C)CC#Cc1ccc([C@H]2[C@H](CO)N3CCCCN(S(=O)(=O)c4ccccc4)C[C@@H]23)cc1", "Gaussia minus Italica difference (%)": "5.094"}
{"smiles": "OC[C@@H]1Nc2ccc(-c3ccccc3)cc2[C@@H]2[C@H]1CCN2Cc1ccccc1F", "Gaussia minus Italica difference (%)": "7.434"}
{"smiles": "O=C(c1ccc2c(c1)OCO2)N1C[C@@H]2N[C@H](C1)C2c1ccc(/C=C/c2ccccc2)cc1", "stereo": "stereo not given in full", "Gaussia minus Italica difference (%)": "5.675"}
{"smiles": "CO[C@@H]1CN(C)C(=O)c2cc(NC(=O)c3ccc4c(c3)OCO4)ccc2OC[C@H](C)N(CC2CC2)C[C@H]1C", "Gaussia minus Italica difference (%)": "-10.8"}
{"smiles": "CO[C@H]1CN(C)C(=O)c2cc(NS(=O)(=O)c3ccc(Oc4ccccc4)cc3)ccc2OC[C@H](C)NC[C@@H]1C", "Gaussia minus Italica difference (%)": "-5.044"}
{"smiles": "COc1cc(CN2CC3(CCN(C(=O)c4cccnc4)CC3)c3c([nH]c4cc(OC)ccc34)[C@@H]2CO)cc(OC)c1", "Gaussia minus Italica difference (%)": "-10.59"}
{"smiles": "COc1ccc2c3c([nH]c2c1)[C@@H](CO)N(Cc1cc(F)ccc1F)CC31CN(C)C1", "Gaussia minus Italica difference (%)": "4.147"}
{"smiles": "O=C(C[C@@H]1CC[C@H]2[C@@H](COC[C@H](O)CN2Cc2cccc(Cl)c2)O1)Nc1nccs1", "Gaussia minus Italica difference (%)": "-9.777"}
{"smiles": "O=C(c1ccc(F)cc1)N1CC2(C1)[C@H](c1ccccc1)[C@@H](CO)N2Cc1ccccn1", "Gaussia minus Italica difference (%)": "-6.806"}
{"smiles": "COc1ccc(S(=O)(=O)Nc2ccc3c(c2)OC[C@@H](C)NC[C@H](C)[C@H](OC)CN(C)C3=O)cc1", "Gaussia minus Italica difference (%)": "-15.21"}
{"smiles": "CCS(=O)(=O)N1CC2(C1)CN(S(=O)(=O)c1ccccc1)[C@H](CO)c1c2c2ccc(OC)cc2n1C", "Gaussia minus Italica difference (%)": "-4.172"}
{"smiles": "COc1ccccc1NC(=O)N1C[C@@H](O)COC[C@@H]2O[C@H](CC(=O)N3CCC(Cc4ccccc4)CC3)CC[C@H]21", "Gaussia minus Italica difference (%)": "-1.528"}
{"smiles": "N#Cc1cccc(-c2ccc(C3[C@H]4CNC[C@@H]3N4Cc3ccc(F)cc3)cc2)c1", "stereo": "stereo not given in full", "Gaussia minus Italica difference (%)": "-9.17"}
{"smiles": "O=C(Nc1cc(F)ccc1F)N1CCCCN2[C@H](C1)[C@H](c1ccc(C3=CCCCC3)cc1)[C@@H]2CO", "Gaussia minus Italica difference (%)": "-6.734"}
{"smiles": "CN1c2ccc(-c3ccccc3)cc2[C@@H]2[C@@H](CCN2C(=O)NC2CCCCC2)[C@@H]1CO", "Gaussia minus Italica difference (%)": "13.71"}
{"smiles": "Cc1ccc(S(=O)(=O)N2C[C@@H]3N[C@H](C2)C3c2ccc(-c3ccc(C(=O)N(C)C)cc3)cc2)cc1", "stereo": "stereo not given in full", "Gaussia minus Italica difference (%)": "-19.24"}
{"smiles": "COc1ccccc1NC(=O)N[C@@H]1CC[C@@H](CC(=O)N2CCC(Cc3ccccc3)CC2)O[C@@H]1CO", "Gaussia minus Italica difference (%)": "-8.383"}
{"smiles": "COc1ccc(-c2ccccc2[C@H]2[C@@H](C#N)N(C(=O)C3CCC3)[C@H]2CO)cc1", "Gaussia minus Italica difference (%)": "-3.686"}
{"smiles": "C[C@H](CO)N1C[C@H](C)[C@H](CN(C)Cc2cccc(F)c2)OCc2ccccc2-c2c(n(C)c3ccccc23)C1=O", "Gaussia minus Italica difference (%)": "2.749"}
{"smiles": "C[C@H](CO)N1C[C@H](C)[C@H](CN(C)S(=O)(=O)c2ccc([N+](=O)[O-])cc2)OCc2ccccc2-c2c(n(C)c3ccccc23)C1=O", "Gaussia minus Italica difference (%)": "11.91"}
{"smiles": "CN(C)C(=O)c1ccc(-c2ccc3c(c2)[C@@H]2[C@@H](CCN2C(=O)C2CCCC2)[C@@H](CO)N3C)cc1", "Gaussia minus Italica difference (%)": "-15.43"}
{"smiles": "COc1ccc2c3c(n(C)c2c1)[C@H](CO)N(C(=O)Nc1ccccc1F)CC31CN(C(=O)c2ccccc2F)C1", "Gaussia minus Italica difference (%)": "-2.931"}
{"smiles": "Cc1cccc(S(=O)(=O)N(C)C[C@@H]2OCc3ccccc3-c3ccccc3C(=O)N([C@@H](C)CO)C[C@@H]2C)c1", "Gaussia minus Italica difference (%)": "-8.478"}
{"smiles": "C[C@H](NC(=O)C[C@H]1CC[C@@H]2[C@H](COC[C@@H](O)CN2Cc2ccc(C(F)(F)F)cc2)O1)c1ccccc1", "Gaussia minus Italica difference (%)": "-7.894"}
{"smiles": "O=S(=O)(Cc1ccccc1)N1CCCCN2[C@@H](CO)[C@H](c3ccc(-c4ccc(F)cc4)cc3)[C@@H]2C1", "Gaussia minus Italica difference (%)": "-7.793"}
{"smiles": "COc1ccc2c3c([nH]c2c1)[C@@H](CO)N(Cc1ccccc1)CC31CCN(S(=O)(=O)c2ccc(C)cc2)CC1", "Gaussia minus Italica difference (%)": "-1.122"}
{"smiles": "COc1ccc(C#Cc2ccc3c(c2)[C@H]2[C@H](CCN2C(=O)c2ccccn2)[C@H](CO)N3)cc1", "Gaussia minus Italica difference (%)": "-18.05"}
{"smiles": "COc1ccc2c3c(n(C)c2c1)[C@H](CO)N(C(=O)C1CC1)CC31CCN(Cc2cccc(F)c2)CC1", "Gaussia minus Italica difference (%)": "26.1"}
{"smiles": "CCCNC(=O)N1CC2(CCN(Cc3ccc(F)cc3)CC2)c2c([nH]c3cc(OC)ccc23)[C@H]1CO", "Gaussia minus Italica difference (%)": "26.36"}
{"smiles": "O=C(c1ccc2c(c1)OCO2)N1CC[C@@H]2[C@@H](CO)Nc3ccc(-c4ccccc4)cc3[C@@H]21", "Gaussia minus Italica difference (%)": "7.958"}
{"smiles": "Cc1ccc(-c2ccccc2[C@@H]2[C@@H](C#N)N(C(=O)NC3CCCC3)[C@H]2CO)cc1", "Gaussia minus Italica difference (%)": "0.9682"}
{"smiles": "COc1cccc(S(=O)(=O)Nc2ccc3c(c2)[C@H]2C[C@H](CC(=O)NCc4cccc(F)c4)O[C@H](CO)[C@H]2O3)c1", "Gaussia minus Italica difference (%)": "-6.168"}
{"smiles": "C[C@H](CO)N1C[C@H](C)[C@H](CN(C)C(=O)Nc2cccc(Cl)c2Cl)OCc2ccccc2-c2c(n(C)c3ccccc23)C1=O", "Gaussia minus Italica difference (%)": "2.727"}
{"smiles": "C[C@H]1CN([C@@H](C)CO)C(=O)c2c(c3ccccc3n2C)-c2ccccc2CO[C@H]1CN(C)Cc1ccc(Cl)c(Cl)c1", "Gaussia minus Italica difference (%)": "-1.251"}
{"smiles": "O=C(Cc1ccncc1)N1CCCCN2[C@H](CO)[C@H](c3ccc(C#Cc4ccccc4F)cc3)[C@H]2C1", "Gaussia minus Italica difference (%)": "-22.12"}

The last 4 entries again:

* COc1cccc(S(=O)(=O)Nc2ccc3c(c2)[C@H]2C[C@H](CC(=O)NCc4cccc(F)c4)O[C@H](CO)[C@H]2O3)c1 : Gaussia minus Italica difference -6.168%
* C[C@H](CO)N1C[C@H](C)[C@H](CN(C)C(=O)Nc2cccc(Cl)c2Cl)OCc2ccccc2-c2c(n(C)c3ccccc23)C1=O : Gaussia minus Italica difference 2.727%
* C[C@H]1CN([C@@H](C)CO)C(=O)c2c(c3ccccc3n2C)-c2ccccc2CO[C@H]1CN(C)Cc1ccc(Cl)c(Cl)c1 : Gaussia minus Italica difference -1.251%
* O=C(Cc1ccncc1)N1CCCCN2[C@H](CO)[C@H](c3ccc(C#Cc4ccccc4F)cc3)[C@H]2C1 : Gaussia minus Italica difference -22.12%